According to the supplement of paper PMC10849652:
The other results are listed elsewhere or left out.

Amino acid sequences for entries named in this document (tags omitted). A change or cut given only in a name is not applied to a line headed by its entry.
UniProt Q9H0U3: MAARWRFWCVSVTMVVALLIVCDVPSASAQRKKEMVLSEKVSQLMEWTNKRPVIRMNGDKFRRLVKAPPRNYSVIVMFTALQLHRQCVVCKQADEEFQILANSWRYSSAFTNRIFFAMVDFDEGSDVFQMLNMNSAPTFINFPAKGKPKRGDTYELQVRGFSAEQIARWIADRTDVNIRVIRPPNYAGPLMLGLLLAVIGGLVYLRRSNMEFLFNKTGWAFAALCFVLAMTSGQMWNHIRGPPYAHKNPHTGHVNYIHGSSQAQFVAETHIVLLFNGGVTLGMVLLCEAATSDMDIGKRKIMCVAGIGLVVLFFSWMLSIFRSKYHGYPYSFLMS
UniProt Q9UPY8, whole entry, looked up: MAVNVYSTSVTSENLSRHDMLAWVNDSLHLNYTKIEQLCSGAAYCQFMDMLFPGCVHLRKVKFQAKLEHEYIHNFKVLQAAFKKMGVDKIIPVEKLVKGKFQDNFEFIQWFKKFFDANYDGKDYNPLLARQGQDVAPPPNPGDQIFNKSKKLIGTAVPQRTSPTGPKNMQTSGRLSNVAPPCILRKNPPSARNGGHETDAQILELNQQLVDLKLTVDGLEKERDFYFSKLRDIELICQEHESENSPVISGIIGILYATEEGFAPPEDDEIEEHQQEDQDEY
UniProt Q9P0L2: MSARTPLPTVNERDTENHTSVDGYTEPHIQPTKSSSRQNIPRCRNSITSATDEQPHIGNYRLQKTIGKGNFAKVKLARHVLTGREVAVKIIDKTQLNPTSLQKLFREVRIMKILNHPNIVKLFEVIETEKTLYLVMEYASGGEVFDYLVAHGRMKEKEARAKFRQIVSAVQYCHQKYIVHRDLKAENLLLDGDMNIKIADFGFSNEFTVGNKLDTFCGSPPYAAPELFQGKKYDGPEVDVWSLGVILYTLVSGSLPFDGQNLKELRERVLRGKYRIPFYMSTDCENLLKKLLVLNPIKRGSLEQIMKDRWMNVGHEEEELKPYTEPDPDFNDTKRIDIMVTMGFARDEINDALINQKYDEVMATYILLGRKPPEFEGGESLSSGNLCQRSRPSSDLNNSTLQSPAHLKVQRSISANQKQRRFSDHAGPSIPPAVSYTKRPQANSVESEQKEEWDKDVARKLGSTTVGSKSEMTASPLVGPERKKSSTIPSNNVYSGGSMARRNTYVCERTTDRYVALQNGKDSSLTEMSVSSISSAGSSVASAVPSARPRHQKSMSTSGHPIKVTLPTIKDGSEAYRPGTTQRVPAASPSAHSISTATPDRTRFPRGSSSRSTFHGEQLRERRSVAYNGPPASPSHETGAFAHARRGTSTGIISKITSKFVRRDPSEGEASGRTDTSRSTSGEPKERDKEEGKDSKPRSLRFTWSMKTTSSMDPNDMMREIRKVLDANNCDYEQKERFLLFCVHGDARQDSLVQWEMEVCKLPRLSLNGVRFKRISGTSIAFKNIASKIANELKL
UniProt Q9NTJ4: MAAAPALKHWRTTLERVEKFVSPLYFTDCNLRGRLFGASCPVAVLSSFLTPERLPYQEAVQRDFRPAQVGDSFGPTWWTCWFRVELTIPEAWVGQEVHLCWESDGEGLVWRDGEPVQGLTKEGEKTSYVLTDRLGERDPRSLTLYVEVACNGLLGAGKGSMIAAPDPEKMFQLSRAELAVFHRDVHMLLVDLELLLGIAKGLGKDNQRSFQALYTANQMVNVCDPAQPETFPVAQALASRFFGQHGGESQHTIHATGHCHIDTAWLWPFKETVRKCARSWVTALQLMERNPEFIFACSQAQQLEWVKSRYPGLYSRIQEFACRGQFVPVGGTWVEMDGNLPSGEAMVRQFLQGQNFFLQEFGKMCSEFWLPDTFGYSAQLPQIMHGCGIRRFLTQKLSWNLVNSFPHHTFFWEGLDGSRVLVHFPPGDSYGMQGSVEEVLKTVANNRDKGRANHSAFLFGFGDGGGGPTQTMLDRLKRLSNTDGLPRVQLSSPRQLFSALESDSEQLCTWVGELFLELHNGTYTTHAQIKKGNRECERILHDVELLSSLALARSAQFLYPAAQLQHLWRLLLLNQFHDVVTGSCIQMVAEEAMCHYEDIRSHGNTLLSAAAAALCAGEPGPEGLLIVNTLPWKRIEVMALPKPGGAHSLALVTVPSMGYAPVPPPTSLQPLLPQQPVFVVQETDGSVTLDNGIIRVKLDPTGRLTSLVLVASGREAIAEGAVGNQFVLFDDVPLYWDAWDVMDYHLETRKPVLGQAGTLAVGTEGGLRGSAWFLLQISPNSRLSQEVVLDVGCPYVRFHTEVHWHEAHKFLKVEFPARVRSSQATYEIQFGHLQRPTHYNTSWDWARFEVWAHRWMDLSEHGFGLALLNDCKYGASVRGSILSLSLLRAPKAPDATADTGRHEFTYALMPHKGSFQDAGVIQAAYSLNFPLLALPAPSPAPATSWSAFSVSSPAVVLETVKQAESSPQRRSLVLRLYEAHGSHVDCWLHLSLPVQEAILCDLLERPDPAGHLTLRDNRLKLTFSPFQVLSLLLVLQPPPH
UniProt Q8WWC4: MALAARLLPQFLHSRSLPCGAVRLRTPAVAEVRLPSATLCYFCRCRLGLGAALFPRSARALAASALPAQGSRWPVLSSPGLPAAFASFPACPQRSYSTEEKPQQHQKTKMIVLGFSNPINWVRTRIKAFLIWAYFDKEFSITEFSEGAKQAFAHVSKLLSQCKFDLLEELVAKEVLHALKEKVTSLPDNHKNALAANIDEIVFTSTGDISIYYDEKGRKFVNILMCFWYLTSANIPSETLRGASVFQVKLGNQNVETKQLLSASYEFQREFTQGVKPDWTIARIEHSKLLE
UniProt Q16644, whole entry, looked up: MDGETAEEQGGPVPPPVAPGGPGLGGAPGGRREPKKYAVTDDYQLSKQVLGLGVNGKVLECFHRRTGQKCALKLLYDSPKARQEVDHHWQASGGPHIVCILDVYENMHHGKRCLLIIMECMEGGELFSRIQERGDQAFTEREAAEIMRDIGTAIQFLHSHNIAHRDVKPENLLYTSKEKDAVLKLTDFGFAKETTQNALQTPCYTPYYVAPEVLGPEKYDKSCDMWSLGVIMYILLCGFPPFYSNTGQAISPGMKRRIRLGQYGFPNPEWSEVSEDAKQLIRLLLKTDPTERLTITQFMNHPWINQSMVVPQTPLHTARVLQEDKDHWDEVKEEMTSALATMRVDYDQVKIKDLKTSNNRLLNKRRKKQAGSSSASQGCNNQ
UniProt P55145: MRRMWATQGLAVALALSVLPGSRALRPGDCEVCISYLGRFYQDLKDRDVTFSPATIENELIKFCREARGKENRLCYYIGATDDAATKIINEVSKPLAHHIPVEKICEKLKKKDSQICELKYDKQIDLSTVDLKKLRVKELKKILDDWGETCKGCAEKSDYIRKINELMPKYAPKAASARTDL
UniProt O15525: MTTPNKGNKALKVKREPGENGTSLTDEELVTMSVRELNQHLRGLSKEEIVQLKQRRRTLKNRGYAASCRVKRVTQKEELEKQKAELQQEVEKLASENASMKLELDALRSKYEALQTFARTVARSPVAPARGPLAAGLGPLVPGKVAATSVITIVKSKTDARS
UniProt P43355: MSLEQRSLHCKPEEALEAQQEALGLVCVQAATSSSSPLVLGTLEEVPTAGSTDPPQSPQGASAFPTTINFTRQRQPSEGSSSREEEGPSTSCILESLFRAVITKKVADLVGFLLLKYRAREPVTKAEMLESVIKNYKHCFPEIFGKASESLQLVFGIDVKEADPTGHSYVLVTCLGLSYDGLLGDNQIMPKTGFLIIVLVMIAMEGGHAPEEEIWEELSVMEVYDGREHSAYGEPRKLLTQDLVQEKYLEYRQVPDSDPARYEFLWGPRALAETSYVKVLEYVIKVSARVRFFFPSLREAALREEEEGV
UniProt P29966: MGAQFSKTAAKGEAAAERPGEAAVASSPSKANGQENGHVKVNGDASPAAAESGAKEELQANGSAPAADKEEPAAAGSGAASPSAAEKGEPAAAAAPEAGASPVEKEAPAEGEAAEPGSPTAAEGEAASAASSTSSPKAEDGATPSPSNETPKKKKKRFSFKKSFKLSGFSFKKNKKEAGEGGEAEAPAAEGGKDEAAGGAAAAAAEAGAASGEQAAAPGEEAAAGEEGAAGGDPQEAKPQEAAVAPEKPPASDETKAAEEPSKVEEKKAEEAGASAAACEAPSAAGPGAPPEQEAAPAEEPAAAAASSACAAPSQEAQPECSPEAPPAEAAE
UniProt P46734: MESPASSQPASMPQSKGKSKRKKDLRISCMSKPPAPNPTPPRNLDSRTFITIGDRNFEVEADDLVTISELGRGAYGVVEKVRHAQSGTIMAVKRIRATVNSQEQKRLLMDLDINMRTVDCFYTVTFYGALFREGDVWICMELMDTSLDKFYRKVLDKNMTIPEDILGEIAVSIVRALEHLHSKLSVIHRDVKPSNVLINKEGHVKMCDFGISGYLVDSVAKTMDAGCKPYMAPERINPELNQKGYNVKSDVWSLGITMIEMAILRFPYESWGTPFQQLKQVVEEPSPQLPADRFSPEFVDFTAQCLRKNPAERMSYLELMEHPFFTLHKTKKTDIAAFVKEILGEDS
UniProt P33908: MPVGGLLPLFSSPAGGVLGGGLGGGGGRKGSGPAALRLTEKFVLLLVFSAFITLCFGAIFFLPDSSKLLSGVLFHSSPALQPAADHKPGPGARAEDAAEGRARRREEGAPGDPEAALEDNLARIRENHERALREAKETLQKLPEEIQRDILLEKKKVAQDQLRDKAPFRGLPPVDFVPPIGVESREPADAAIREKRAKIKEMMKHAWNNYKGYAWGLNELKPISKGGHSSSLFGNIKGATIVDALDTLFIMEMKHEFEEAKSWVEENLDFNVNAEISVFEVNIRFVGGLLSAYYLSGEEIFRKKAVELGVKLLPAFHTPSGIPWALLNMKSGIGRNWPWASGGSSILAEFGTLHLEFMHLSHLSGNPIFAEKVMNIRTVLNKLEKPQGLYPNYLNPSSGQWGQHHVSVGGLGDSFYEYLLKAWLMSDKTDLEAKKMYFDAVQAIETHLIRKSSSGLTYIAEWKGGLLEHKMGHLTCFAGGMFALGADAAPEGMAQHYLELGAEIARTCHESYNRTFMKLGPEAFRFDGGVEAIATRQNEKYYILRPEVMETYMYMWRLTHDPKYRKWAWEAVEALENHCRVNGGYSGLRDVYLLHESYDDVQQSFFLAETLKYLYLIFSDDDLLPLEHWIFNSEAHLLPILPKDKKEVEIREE
UniProt Q8N653: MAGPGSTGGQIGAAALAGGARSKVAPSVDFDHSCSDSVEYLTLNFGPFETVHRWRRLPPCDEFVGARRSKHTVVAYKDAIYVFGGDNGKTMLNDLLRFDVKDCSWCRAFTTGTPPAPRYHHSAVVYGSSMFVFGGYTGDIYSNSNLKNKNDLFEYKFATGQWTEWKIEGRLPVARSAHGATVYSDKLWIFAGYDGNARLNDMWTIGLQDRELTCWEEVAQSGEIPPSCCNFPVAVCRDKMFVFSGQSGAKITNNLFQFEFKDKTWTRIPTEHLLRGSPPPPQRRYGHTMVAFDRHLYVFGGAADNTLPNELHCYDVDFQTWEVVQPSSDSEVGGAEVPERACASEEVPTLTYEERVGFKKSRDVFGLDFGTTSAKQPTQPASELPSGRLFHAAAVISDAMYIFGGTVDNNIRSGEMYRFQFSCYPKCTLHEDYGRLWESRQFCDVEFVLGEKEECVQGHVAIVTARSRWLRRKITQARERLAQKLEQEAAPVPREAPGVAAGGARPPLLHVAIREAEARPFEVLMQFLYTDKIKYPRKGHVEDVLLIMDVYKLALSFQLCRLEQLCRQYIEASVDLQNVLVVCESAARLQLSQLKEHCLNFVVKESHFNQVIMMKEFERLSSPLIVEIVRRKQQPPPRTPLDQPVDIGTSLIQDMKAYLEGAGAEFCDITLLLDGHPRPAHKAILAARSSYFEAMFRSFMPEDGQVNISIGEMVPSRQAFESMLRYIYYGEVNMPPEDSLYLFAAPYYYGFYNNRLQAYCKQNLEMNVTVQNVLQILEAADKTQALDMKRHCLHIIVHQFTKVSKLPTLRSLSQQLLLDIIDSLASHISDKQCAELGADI

Tests used:
Assay in all cases: log2 fold change, soluble protein after heating vs DMSO (PISA); higher = thermal stabilisation; K562 lysate, 10 uM; active = over 0.2 and 3.5 SD of the protein, either way, in both replicates (recomputed)
lapatinib = compound: CS(=O)(=O)CCNCc1ccc(-c2ccc3ncnc(Nc4ccc(OCc5cccc(F)c5)c(Cl)c4)c3c2)o1 [lapatinib]
Method in brief: (§1)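 To prepare the extract, K562 pellets were dounce-homogenised in PBS pH 7.4 with 1 mM MgCl2, giving crude material at 1 mg/mL protein. This was treated with 10 μM compound for 30 min, then heated in aliquots for 3 min over 48°C-58°C before pooling and addition of NP-40 to 0.5% at 4°C. Centrifugation at 21,000xg for 90 min left soluble protein in the supernatant, which TMTpro 16plex LC-MS/MS quantified with equalised channel sums. Results are log-two fold changes in thermal stability compared with solvent controls, from duplicates.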

pictilisib = compound: CS(=O)(=O)N1CCN(Cc2cc3nc(-c4cccc5[nH]ncc45)nc(N4CCOCC4)c3s2)CC1 [pictilisib]
Method in brief: as §1

crizotinib = compound: C[C@@H](Oc1cc(-c2cnn(C3CCNCC3)c2)cnc1N)c1c(Cl)ccc(F)c1Cl [crizotinib]
Method in brief: as §1

[1] = compound: C[C@H](C1=CC=C(C=C1)C(=O)NC2=C3C=CNC3=NC=C2)N
Method in brief: as §1

duvelisib = compound: C[C@H](Nc1ncnc2nc[nH]c12)c1cc2cccc(Cl)c2c(=O)n1-c1ccccc1 [duvelisib]
Method in brief: as §1

gandotinib = compound: Cc1cc(Nc2cc(CN3CCOCC3)c3nc(C)c(Cc4ccc(Cl)cc4F)n3n2)n[nH]1 [gandotinib]
Method in brief: as §1

tozasertib = compound: Cc1cc(Nc2cc(N3CCN(C)CC3)nc(Sc3ccc(NC(=O)C4CC4)cc3)n2)n[nH]1 [tozasertib]
Method in brief: as §1

doramapimod = compound: Cc1ccc(-n2nc(C(C)(C)C)cc2NC(=O)Nc2ccc(OCCN3CCOCC3)c3ccccc23)cc1 [doramapimod]
Method in brief: as §1

bafetinib = compound: Cc1ccc(NC(=O)c2ccc(CN3CC[C@H](N(C)C)C3)c(C(F)(F)F)c2)cc1Nc1nccc(-c2cncnc2)n1 [bafetinib]
Method in brief: as §1

[2] = compound: Cc1cccc(CC(=O)N2CCc3c2ccc(-c2cn(C)c4ncnc(N)c24)c3F)n1
Method in brief: as §1

nilotinib = compound: Cc1cn(-c2cc(NC(=O)c3ccc(C)c(Nc4nccc(-c5cccnc5)n4)c3)cc(C(F)(F)F)c2)cn1 [nilotinib]
Method in brief: as §1

[3] = compound: Cc1nc(Nc2n[nH]c3c2CN(C(=O)N[C@H](CN(C)C)c2ccccc2)C3(C)C)c2sccc2n1
Method in brief: as §1

dasatinib = compound: Cc1nc(Nc2ncc(C(=O)Nc3c(C)cccc3Cl)s2)cc(N2CCN(CCO)CC2)n1 [dasatinib]
Method in brief: as §1

[4] = compound: Cc1ncc(-c2ccnc(Nc3ccc(S(C)(=O)=O)cc3)n2)n1C(C)C
Method in brief: as §1

[5] = compound: Cn1cc(-c2ccc3c(c2)CCN3C(=O)Cc2cccc(C(F)(F)F)c2)c2c(N)ncnc21
Method in brief: as §1

quisinostat = compound: Cn1cc(CNCC2CCN(c3ncc(C(=O)NO)cn3)CC2)c2ccccc21 [quisinostat]
Method in brief: as §1

tipifarnib = compound: Cn1cncc1[C@@](N)(c1ccc(Cl)cc1)c1ccc2c(c1)c(-c1cccc(Cl)c1)cc(=O)n2C [tipifarnib]
Method in brief: as §1

[6] = compound: NC(=O)Nc1cc(-c2cccc(F)c2)sc1C(=O)N[C@H]1CCCNC1
Method in brief: as §1

[7] = compound: NC(=O)c1cnc(N[C@@H]2CCCC[C@@H]2N)nc1Nc1cccc(-n2nccn2)c1
Method in brief: as §1

[8] = compound: NC1(c2ccc(-c3nc4ccn5c(=O)[nH]nc5c4cc3-c3ccccc3)cc2)CCC1
Method in brief: as §1

Measured: log2 fold change

MAGT1 (UniProt Q9H0U3)
inactive: lapatinib -0.012 | pictilisib 0.005 | crizotinib -0.04 | [1] -0.022 | duvelisib -0.033 | gandotinib 0.052 | tozasertib -0.026 | doramapimod 0.044 | bafetinib -0.059 | [2] 0.038 | nilotinib -0.006 | [3] -0.002 | dasatinib 0.009 | [4] -0.001 | [5] -0.007 | quisinostat -0.075 | tipifarnib 0 | [6] -0.012 | [7] -0.003 | [8] -0.015

MAPRE3 (UniProt Q9UPY8)
inactive: lapatinib 0.008 | pictilisib -0.007 | crizotinib 0.096 | [1] 0.159 | duvelisib -0.006 | gandotinib -0.212 | tozasertib 0.029 | doramapimod 0.013 | bafetinib 0.057 | [2] -0.15 | nilotinib 0.022 | [3] -0.013 | dasatinib 0.088 | [4] -0.053 | [5] 0.054 | quisinostat 0.146 | tipifarnib 0.014 | [6] -0.03 | [7] 0.006 | [8] 0.009

MARK1 (UniProt Q9P0L2)
inactive: lapatinib 0.037 | pictilisib -0.065 | crizotinib -0.175 | [1] 0.026 | duvelisib -0.002 | gandotinib -0.192 | tozasertib -0.084 | doramapimod 0.155 | bafetinib -0.034 | [2] 0.05 | nilotinib 0.035 | [3] -0.113 | dasatinib -0.123 | [4] -0.019 | [5] 0.003 | quisinostat 0.092 | tipifarnib 0.023 | [6] -0.083 | [7] -0.03 | [8] -0.072

MAN2C1 isoform 4 (UniProt Q9NTJ4)
inactive: lapatinib 0.047 | pictilisib -0.04 | crizotinib -0.005 | [1] -0.029 | duvelisib 0.031 | gandotinib 0.024 | tozasertib -0.028 | doramapimod -0.007 | bafetinib 0.031 | [2] 0.01 | nilotinib -0.097 | [3] 0.074 | dasatinib -0.008 | [4] -0.061 | [5] -0.033 | quisinostat -0.002 | tipifarnib -0.071 | [6] 0 | [7] -0.004 | [8] -0.029

MACF1 (UniProt H3BQK9)
inactive: lapatinib -0.035 | pictilisib -0.033 | crizotinib -0.047 | [1] 0.012 | duvelisib 0.006 | gandotinib -0.074 | tozasertib 0.015 | doramapimod -0.016 | bafetinib -0.042 | [2] 0.019 | nilotinib 0.006 | [3] 0.026 | dasatinib -0.025 | [4] 0.015 | [5] 0.057 | quisinostat -0.078 | tipifarnib -0.018 | [6] 0.015 | [7] 0.04 | [8] -0.027

MAIP1 (UniProt Q8WWC4)
inactive: lapatinib -0.021 | pictilisib -0.041 | crizotinib -0.057 | [1] -0.036 | duvelisib -0.033 | gandotinib 0.05 | tozasertib 0.004 | doramapimod 0.051 | bafetinib -0.108 | [2] 0.011 | nilotinib 0.024 | [3] 0.006 | dasatinib -0.053 | [4] 0.037 | [5] 0.022 | quisinostat -0.094 | tipifarnib -0.054 | [6] 0.064 | [7] -0.003 | [8] -0.028

MAPKAPK3 (UniProt Q16644)
inactive: lapatinib 0 | pictilisib -0.013 | crizotinib -0.026 | [1] 0.034 | duvelisib -0.038 | gandotinib -0.044 | tozasertib 0.046 | doramapimod -0.025 | bafetinib 0.026 | [2] -0.014 | nilotinib -0.024 | [3] 0.077 | dasatinib 0.023 | [4] -0.058 | [5] 0.016 | quisinostat 0.01 | tipifarnib 0.017 | [6] 0.021 | [7] 0.013 | [8] 0.009

Copied from the entries so far (4 entries):
MAGT1 (UniProt Q9H0U3)
inactive: lapatinib -0.012 | pictilisib 0.005 | crizotinib -0.04 | [1] -0.022 | duvelisib -0.033 | gandotinib 0.052 | tozasertib -0.026 | doramapimod 0.044 | bafetinib -0.059 | [2] 0.038 | nilotinib -0.006 | [3] -0.002 | dasatinib 0.009 | [4] -0.001 | [5] -0.007 | quisinostat -0.075 | tipifarnib 0 | [6] -0.012 | [7] -0.003 | [8] -0.015

MAPRE3 (UniProt Q9UPY8)
inactive: lapatinib 0.008 | pictilisib -0.007 | crizotinib 0.096 | [1] 0.159 | duvelisib -0.006 | gandotinib -0.212 | tozasertib 0.029 | doramapimod 0.013 | bafetinib 0.057 | [2] -0.15 | nilotinib 0.022 | [3] -0.013 | dasatinib 0.088 | [4] -0.053 | [5] 0.054 | quisinostat 0.146 | tipifarnib 0.014 | [6] -0.03 | [7] 0.006 | [8] 0.009

MARK1 (UniProt Q9P0L2)
inactive: lapatinib 0.037 | pictilisib -0.065 | crizotinib -0.175 | [1] 0.026 | duvelisib -0.002 | gandotinib -0.192 | tozasertib -0.084 | doramapimod 0.155 | bafetinib -0.034 | [2] 0.05 | nilotinib 0.035 | [3] -0.113 | dasatinib -0.123 | [4] -0.019 | [5] 0.003 | quisinostat 0.092 | tipifarnib 0.023 | [6] -0.083 | [7] -0.03 | [8] -0.072

MAN2C1 isoform 4 (UniProt Q9NTJ4)
inactive: lapatinib 0.047 | pictilisib -0.04 | crizotinib -0.005 | [1] -0.029 | duvelisib 0.031 | gandotinib 0.024 | tozasertib -0.028 | doramapimod -0.007 | bafetinib 0.031 | [2] 0.01 | nilotinib -0.097 | [3] 0.074 | dasatinib -0.008 | [4] -0.061 | [5] -0.033 | quisinostat -0.002 | tipifarnib -0.071 | [6] 0 | [7] -0.004 | [8] -0.029

Remaining list, next part:

MANF (UniProt P55145)
inactive: lapatinib 0.014 | pictilisib -0.025 | crizotinib 0.037 | [1] -0.045 | duvelisib 0.053 | gandotinib 0.068 | tozasertib -0.03 | doramapimod -0.047 | bafetinib 0.094 | [2] -0.026 | nilotinib -0.002 | [3] -0.013 | dasatinib 0.011 | [4] -0.015 | [5] -0.005 | quisinostat -0.012 | tipifarnib -0.05 | [6] -0.014 | [7] 0.002 | [8] 0.024

MAFG (UniProt O15525)
inactive: lapatinib 0.031 | pictilisib 0.025 | crizotinib 0.039 | [1] 0.028 | duvelisib 0 | gandotinib 0.045 | tozasertib 0.129 | doramapimod 0.005 | bafetinib -0.194 | [2] 0.044 | nilotinib -0.116 | [3] -0.01 | dasatinib -0.099 | [4] 0.114 | [5] -0.057 | quisinostat 0 | tipifarnib -0.156 | [6] 0.016 | [7] 0.016 | [8] 0.03

MAGEA1 (UniProt P43355)
inactive: lapatinib -0.092 | pictilisib -0.044 | crizotinib 0.042 | [1] 0.018 | duvelisib 0.002 | gandotinib -0.092 | tozasertib 0.005 | doramapimod -0.023 | bafetinib -0.034 | [2] 0.01 | nilotinib -0.01 | [3] 0.104 | dasatinib 0.011 | [4] -0.04 | [5] -0.003 | quisinostat -0.023 | tipifarnib -0.05 | [6] 0.034 | [7] 0.071 | [8] 0.037

MARCKS (UniProt P29966)
inactive: lapatinib -0.047 | pictilisib -0.028 | crizotinib 0.036 | [1] -0.05 | duvelisib 0.077 | gandotinib 0.017 | tozasertib 0.059 | doramapimod -0.031 | bafetinib 0.144 | [2] -0.022 | nilotinib 0.056 | [3] 0.02 | dasatinib 0.033 | [4] -0.014 | [5] 0.002 | quisinostat -0.045 | tipifarnib 0.001 | [6] -0.024 | [7] -0.037 | [8] 0.083

MAP2K3 isoform 3 (UniProt P46734)
inactive: lapatinib -0.014 | pictilisib -0.102 | crizotinib -0.043 | [1] -0.021 | duvelisib 0.124 | gandotinib 0.038 | tozasertib 0.017 | doramapimod -0.047 | bafetinib -0.012 | [2] -0.035 | nilotinib -0.001 | [3] -0.004 | dasatinib -0.021 | [4] 0.021 | [5] 0.059 | quisinostat -0.055 | tipifarnib -0.093 | [6] 0.034 | [7] -0.03 | [8] 0.131

MAN1A1 (UniProt P33908)
inactive: lapatinib -0.031 | pictilisib -0.017 | crizotinib 0.002 | [1] -0.037 | duvelisib 0.007 | gandotinib 0 | tozasertib 0 | doramapimod 0.009 | bafetinib -0.055 | [2] 0.053 | nilotinib -0.015 | [3] -0.013 | dasatinib 0.004 | [4] 0.022 | [5] 0.038 | quisinostat 0.035 | tipifarnib -0.041 | [6] 0.005 | [7] -0.01 | [8] -0.063

LZTR1 (UniProt Q8N653)
inactive: lapatinib 0.177 | pictilisib -0.031 | crizotinib -0.092 | [1] 0.135 | duvelisib -0.033 | gandotinib -0.121 | tozasertib -0.023 | doramapimod 0.083 | bafetinib 0.005 | [2] 0.026 | nilotinib 0.016 | [3] 0.014 | dasatinib -0.063 | [4] -0.068 | [5] 0.008 | quisinostat -0.029 | tipifarnib -0.036 | [6] 0.099 | [7] -0.033 | [8] -0.019

MAST4 (UniProt O15021)
inactive: lapatinib -0.12 | pictilisib 0.122 | crizotinib 0.079 | [1] -0.065 | duvelisib -0.089 | gandotinib 0.374 | tozasertib 0.274 | doramapimod -0.121 | bafetinib -0.103 | [2] 0.017 | nilotinib -0.078 | [3] 0.114 | dasatinib 0.001 | [4] 0.08 | [5] 0.04 | quisinostat 0.104 | tipifarnib 0.012 | [6] 0.073 | [7] 0.021 | [8] 0.059

MAPK9 (UniProt P45984)
inactive: lapatinib 0.001 | pictilisib 0.088 | crizotinib -0.021 | [1] 0.026 | duvelisib 0.006 | gandotinib 0.035 | tozasertib 0.033 | doramapimod 0.192 | bafetinib -0.011 | [2] -0.15 | nilotinib -0.015 | [3] 0.025 | dasatinib -0.005 | [4] 0.174 | [5] 0.118 | quisinostat 0.004 | tipifarnib -0.028 | [6] -0.005 | [7] 0.009 | [8] 0.012
